Here are results for two molecules from PMC12222077.

By UniProt entry, the sequences of proteins in these tests, tags left out.
UniProt Q13177: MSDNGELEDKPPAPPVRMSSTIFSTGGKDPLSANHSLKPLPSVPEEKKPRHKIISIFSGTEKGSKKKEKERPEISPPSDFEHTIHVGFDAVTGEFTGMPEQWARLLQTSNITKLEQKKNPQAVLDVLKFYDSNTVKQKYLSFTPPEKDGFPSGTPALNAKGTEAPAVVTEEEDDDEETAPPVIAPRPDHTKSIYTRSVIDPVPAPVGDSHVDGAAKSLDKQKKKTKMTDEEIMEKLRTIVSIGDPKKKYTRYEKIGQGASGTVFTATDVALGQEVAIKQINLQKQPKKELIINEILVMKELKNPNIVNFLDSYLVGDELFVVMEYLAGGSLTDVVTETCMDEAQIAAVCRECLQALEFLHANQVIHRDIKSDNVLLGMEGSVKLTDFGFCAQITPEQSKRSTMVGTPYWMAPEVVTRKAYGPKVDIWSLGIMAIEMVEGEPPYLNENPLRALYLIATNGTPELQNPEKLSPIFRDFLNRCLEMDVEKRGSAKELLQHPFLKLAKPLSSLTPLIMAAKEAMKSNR

These are yes or no findings as the source states them, for the method shown. In cells and extracts the contact can be indirect. Some entries that bind do so weakly or less than the wild type. Where a sequence is shown, tags or fusion partners need not be part of it.

Test [1] addresses T1, Protein phosphatase 1 regulatory subunit 12B (PPP1R12B), Flag-tagged (human) (UniProt O60237).
T1 sequence: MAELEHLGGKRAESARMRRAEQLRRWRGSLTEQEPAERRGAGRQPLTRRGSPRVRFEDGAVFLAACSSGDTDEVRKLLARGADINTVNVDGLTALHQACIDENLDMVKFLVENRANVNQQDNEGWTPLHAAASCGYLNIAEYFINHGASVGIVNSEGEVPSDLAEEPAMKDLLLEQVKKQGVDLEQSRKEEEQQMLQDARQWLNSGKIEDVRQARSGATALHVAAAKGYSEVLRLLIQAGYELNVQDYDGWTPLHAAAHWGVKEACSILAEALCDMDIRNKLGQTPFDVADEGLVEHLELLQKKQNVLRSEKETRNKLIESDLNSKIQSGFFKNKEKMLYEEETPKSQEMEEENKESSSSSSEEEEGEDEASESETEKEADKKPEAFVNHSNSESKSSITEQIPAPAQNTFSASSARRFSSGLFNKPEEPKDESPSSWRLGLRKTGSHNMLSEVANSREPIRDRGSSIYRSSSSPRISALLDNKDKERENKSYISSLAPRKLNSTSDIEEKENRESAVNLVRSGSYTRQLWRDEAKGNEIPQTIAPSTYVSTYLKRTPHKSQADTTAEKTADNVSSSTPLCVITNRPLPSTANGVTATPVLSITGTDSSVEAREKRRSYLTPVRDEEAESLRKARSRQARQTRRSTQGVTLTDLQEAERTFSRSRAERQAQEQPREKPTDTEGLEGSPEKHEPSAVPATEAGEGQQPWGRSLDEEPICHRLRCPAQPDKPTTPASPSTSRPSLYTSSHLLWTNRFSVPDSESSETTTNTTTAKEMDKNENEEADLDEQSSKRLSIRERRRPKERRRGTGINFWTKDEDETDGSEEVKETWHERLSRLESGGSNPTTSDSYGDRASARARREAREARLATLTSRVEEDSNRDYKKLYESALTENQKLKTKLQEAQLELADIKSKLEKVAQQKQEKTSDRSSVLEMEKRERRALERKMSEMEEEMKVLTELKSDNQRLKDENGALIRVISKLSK
As to the kind of experiment: co-IP; anti-FLAG antibody precipitates Flag-PPP1R12B from lysates (IP buffer with protease inhibitors) of Huh7 and HepG2 overexpression cells, 4°C overnight, Protein A/G magnetic beads; PAK2 detected by Western blot; IgG as control.

In test [2] the target is p21-activated kinase 2 (PAK2) (human (endogenous in Huh7 and HepG2)) (UniProt Q13177). The experiment in a line: co-IP; reciprocal: anti-PAK2 antibody precipitates endogenous PAK2 from lysate of Huh7 PPP1R12B overexpression cells, 4°C overnight, Protein A/G magnetic beads; PPP1R12B detected by Western blot; IgG as control.

In the case of “p21-activated kinase 2 (PAK2) (from UniProt Q13177 1-524) (enzyme)”, the binding entry in test [1] is “binds”.

B1: Protein phosphatase 1 regulatory subunit 12B (PPP1R12B), Flag-tagged (protein, UniProt O60237-1 1-982)
chain: T1 sequence
As to B1, the binding result in test [2] was “binds”.
